Data as given in PubChem BioAssay AID1224828 (NIAID, 2016)

Aim: 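Find genes required for NF-kappaB p65 moving into the nucleus after LPS in mouse macrophages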 (primary screen)
Cell system: mouse RAW264.7 G9 macrophage reporter cells (GFP-p65, Tnf promoter-mCherry)
Reagents: siRNA pool against mouse genes, 100 nM
Duration: 2 days siRNA transfection, then 40 min LPS before fixation
Conditions: LPS (Salmonella minnesota R595) at 10 ng/ml
Detection: 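Microscopy ratio of nuclear to perinuclear-ring GFP-p65 signal, scaled to the plate median; gene score is the average of two replicate robust z-scores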
Scale: p65 translocation robust z-score: higher = more nuclear NF-kappaB p65 after LPS than the plate median; nuclear/cytoplasmic p65 ratio: higher = more nuclear NF-kappaB p65
Active means: 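Called active when z exceeds 3.3 or falls under -1.56 (median of Tlr4 controls), giving activity score of at least 50; no calls for control wells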
Calls: active = hit (p65 shift raised or lowered); inactive = no clear change
This is an unselected part of about 17,000 reagents. 762 of them (4.5%) count as active. 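Active calls include both raised and lowered p65 entry, mostly lowered; wells with fewer than 50 cells lack a z-score.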 Raw values vary from plate to plate and are shown uncorrected.

For Tmem51, what was measured?
p65 translocation robust z-score: -2.82; nuclear/cytoplasmic p65 ratio, rep 1: 1.24; nuclear/cytoplasmic p65 ratio, rep 2: 1.37; low cell count flag: enough cells to score; outcome: active

With 4632434I11RIK, what does the deposit list?
p65 translocation robust z-score: 0.54; nuclear/cytoplasmic p65 ratio, rep 1: 1.35; nuclear/cytoplasmic p65 ratio, rep 2: 1.28; low cell count flag: enough cells to score; outcome: inactive

With Sbsn, what does the deposit list?
p65 translocation robust z-score: -0.94; nuclear/cytoplasmic p65 ratio, rep 1: 1.22; nuclear/cytoplasmic p65 ratio, rep 2: 1.11; low cell count flag: enough cells to score; outcome: inactive

How did the screen score Myrip?
p65 translocation robust z-score: 0.74; nuclear/cytoplasmic p65 ratio, rep 1: 1.53; nuclear/cytoplasmic p65 ratio, rep 2: 1.45; low cell count flag: enough cells to score; outcome: inactive

Which result is listed for Cd6?
p65 translocation robust z-score: -0.13; nuclear/cytoplasmic p65 ratio, rep 1: 1.48; nuclear/cytoplasmic p65 ratio, rep 2: 1.36; low cell count flag: enough cells to score; outcome: inactive

With Clk2, what does the deposit list?
nuclear/cytoplasmic p65 ratio, rep 1: 1.56; nuclear/cytoplasmic p65 ratio, rep 2: 1.29; low cell count flag: fewer than 50 cells per well; well left out of scoring; outcome: inactive

What did the screen give for Apoa4?
p65 translocation robust z-score: 0.24; nuclear/cytoplasmic p65 ratio, rep 1: 1.68; nuclear/cytoplasmic p65 ratio, rep 2: 1.63; low cell count flag: enough cells to score; outcome: inactive

With Tor1b, what was measured?
p65 translocation robust z-score: 0.58; nuclear/cytoplasmic p65 ratio, rep 1: 1.34; nuclear/cytoplasmic p65 ratio, rep 2: 1.25; low cell count flag: enough cells to score; outcome: inactive

Which result is listed for 2810408A11Rik?
nuclear/cytoplasmic p65 ratio, rep 1: 1.24; nuclear/cytoplasmic p65 ratio, rep 2: 1.36; low cell count flag: fewer than 50 cells per well; well left out of scoring; outcome: inactive

With Or8b44, what was measured?
nuclear/cytoplasmic p65 ratio, rep 1: 1.25; nuclear/cytoplasmic p65 ratio, rep 2: 1.21; low cell count flag: fewer than 50 cells per well; well left out of scoring; outcome: inactive

For Taf7l, what does the deposit list?
p65 translocation robust z-score: 0.3; nuclear/cytoplasmic p65 ratio, rep 1: 1.56; nuclear/cytoplasmic p65 ratio, rep 2: 1.56; low cell count flag: enough cells to score; outcome: inactive

With Ccdc60, what does the deposit list?
nuclear/cytoplasmic p65 ratio, rep 1: 1.26; nuclear/cytoplasmic p65 ratio, rep 2: 1.43; low cell count flag: fewer than 50 cells per well; well left out of scoring; outcome: inactive
